{"source": "the supplement of paper PMC9135407", "test_system": "primary human hepatic stellate cells (donor 1)", "assay": "percent Bodipy-positive cells; higher = more lipid droplet accumulation", "settings": "48 h", "key": {"[1]": {"settings": "library stock concentration: 3.33 mM"}, "[2]": {"settings": "library stock concentration: 10 mM"}, "[3]": {"settings": "library stock concentration: 80 uM"}, "[4]": {"settings": "library stock concentration: 400 uM"}, "[5]": {"settings": "library stock concentration: 2 mM"}, "[6]": {"settings": "library stock concentration: 1 mM"}}, "note": "Several values for one entry are separate records, joined by “and”; a condition that tells them apart may be missing. Identical values can stand only once. Counter-ions that a name gives are not always drawn. ± gives the standard deviation of the averaged measurements. The list shows a part of the results. Plates or batches differ in their baseline, so values are only roughly comparable.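 Assay uses culture-activated primary human stellate myofibroblasts; lipid droplet recovery indicates inactivation. Measured: proportion of Hoechst-counted cells over a plate-specific Bodipy cutoff, duplicate wells, DMSO and nortriptyline as per-plate negative and positive controls. A hit scores, control-normalized, above the plate's top-tenth-percentile nortriptyline wells or ranks among its three best wells. Final well concentrations not reported.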", "data": [{"compound": "COc1cc2ncc(-c3ccccc3)nc2cc1OC", "values": [{"measurement": "percent Bodipy-positive cells", "setting": "[1]", "value": "10.42 ± 0.1", "unit": "%"}, {"measurement": "percent Bodipy-positive cells", "setting": "library stock concentration: 18.8 mM", "value": "23.7 ± 4.8", "unit": "%"}]}, {"compound": "COc1cc2ncc(-c3ccccc3)nc2cc1OC", "note": "[Tyrphostin AG 1296]", "values": [{"measurement": "percent Bodipy-positive cells", "setting": "[1]", "value": "25.5 ± 3.2", "unit": "%"}, {"measurement": "percent Bodipy-positive cells", "setting": "[2]", "value": "31.9 ± 5.9", "unit": "%"}]}, {"compound": "COc1cc(Nc2ncc(F)c(Nc3ccc4c(n3)NC(=O)C(C)(C)O4)n2)cc(OC)c1OC", "values": [{"measurement": "percent Bodipy-positive cells", "setting": "[3]", "value": "8.43 ± 3.4", "unit": "%"}, {"measurement": "percent Bodipy-positive cells", "setting": "[4]", "value": "5.03 ± 0.14", "unit": "%"}, {"measurement": "percent Bodipy-positive cells", "setting": "[5]", "value": "29.2 ± 4.4", "unit": "%"}, {"measurement": "percent Bodipy-positive cells", "setting": "[1]", "value": "30.4 ± 2.6", "unit": "%"}]}, {"compound": "CN1CCCN=C1COC(=O)C(O)(c1ccccc1)C1CCCCC1", "note": "(stereo unspecified) [Oxyphencyclimine hydrochloride]", "values": [{"measurement": "percent Bodipy-positive cells", "setting": "library stock concentration: 5.3 mM", "value": "12.6 ± 0.27", "unit": "%"}, {"measurement": "percent Bodipy-positive cells", "setting": "[2]", "value": "63 ± 2.2", "unit": "%"}]}, {"compound": "CC(C)(Oc1ccc(Cl)cc1)C(=O)O", "note": "[Clofibric Acid]", "values": [{"measurement": "percent Bodipy-positive cells", "setting": "[1]", "value": "9.71 ± 3.9", "unit": "%"}, {"measurement": "percent Bodipy-positive cells", "setting": "[2]", "value": "22.2 ± 0.53", "unit": "%"}]}, {"compound": "CC(C)(Oc1ccc(Cl)cc1)C(=O)O", "note": "[Clofibric acid]", "values": [{"measurement": "percent Bodipy-positive cells", "value": "12.5 ± 0.14", "unit": "%"}, {"measurement": "percent Bodipy-positive cells", "setting": "[2]", "value": "9.13% and 7.69%"}]}, {"compound": "COc1ccc(C(=O)Nc2sc3c(c2C(N)=O)CCCC3)cc1OC", "values": [{"measurement": "percent Bodipy-positive cells", "setting": "[1]", "value": "76.88 ± 0.34", "unit": "%"}]}, {"compound": "CC(=O)N[C@@H](CCC(N)=O)C(=O)O", "values": [{"measurement": "percent Bodipy-positive cells", "setting": "[2]", "value": "26.4 ± 1.3", "unit": "%"}]}, {"compound": "CC(=O)NO", "note": "[Acetohydroxamic acid]", "values": [{"measurement": "percent Bodipy-positive cells", "setting": "[2]", "value": "9.91 ± 3.4", "unit": "%"}]}, {"compound": "CC(N)(Cc1ccc(O)c(O)c1)C(=O)O", "note": "(stereo unspecified)", "values": [{"measurement": "percent Bodipy-positive cells", "setting": "[2]", "value": "6.91 ± 2.4", "unit": "%"}]}, {"compound": "O=NO", "note": "[Sodium Nitrite]", "values": [{"measurement": "percent Bodipy-positive cells", "setting": "[1]", "value": "12.1 ± 2.3", "unit": "%"}, {"measurement": "percent Bodipy-positive cells", "setting": "[2]", "value": "24.4 ± 13", "unit": "%"}]}, {"compound": "N[C@@H](Cn1ccc(=O)c(O)c1)C(=O)O", "note": "[L-Mimosine from Koa hoale seeds]", "values": [{"measurement": "percent Bodipy-positive cells", "setting": "[2]", "value": "25.5 ± 3", "unit": "%"}]}, {"compound": "CN(C)CC/C=C1\\c2ccccc2CSc2ccccc21", "note": "[Dosulepin hydrochloride]", "values": [{"measurement": "percent Bodipy-positive cells", "value": "80.4 ± 1.9", "unit": "%"}]}, {"compound": "COC(=O)[C@H](Cc1ccccc1)NC(=O)/C=C/c1ccc(O)cc1", "values": [{"measurement": "percent Bodipy-positive cells", "setting": "[6]", "value": "7.24 ± 0.69", "unit": "%"}]}, {"compound": "CC(C)(S)[C@@H](N)C(=O)O", "note": "[Penicillamine]", "values": [{"measurement": "percent Bodipy-positive cells", "setting": "[2]", "value": "18.8 ± 6.7", "unit": "%"}, {"measurement": "percent Bodipy-positive cells", "setting": "library stock concentration: 13.4 mM", "value": "87.6 ± 1.3", "unit": "%"}]}, {"compound": "O=C(O)C1CSCN1", "note": "(stereo unspecified)", "values": [{"measurement": "percent Bodipy-positive cells", "setting": "[2]", "value": "34.4 ± 9.2", "unit": "%"}]}, {"compound": "Cc1cc(C(=O)NNCc2ccccc2)no1", "note": "[Isocarboxazid]", "values": [{"measurement": "percent Bodipy-positive cells", "value": "9.89 ± 7.8", "unit": "%"}]}, {"compound": "CO[C@H]1C[C@H](O[C@H]2[C@H](C)[C@@H](O[C@@H]3O[C@H](C)C[C@H](N(C)C)[C@H]3OC(C)=O)[C@@H](C)C[C@@]3(CO3)C(=O)[C@H](C)[C@@H](OC(C)=O)[C@@H](C)[C@@H](C)OC(=O)[C@@H]2C)O[C@@H](C)[C@@H]1OC(C)=O", "note": "[Troleandomycin]", "values": [{"measurement": "percent Bodipy-positive cells", "value": "27.3 ± 1.5", "unit": "%"}, {"measurement": "percent Bodipy-positive cells", "setting": "[2]", "value": "32.6 ± 9.2", "unit": "%"}]}, {"compound": "COc1ccc(-c2ccc(=N)n(CCCC(=O)O)n2)cc1", "values": [{"measurement": "percent Bodipy-positive cells", "setting": "[2]", "value": "16.3% and 8.7%"}]}, {"compound": "COc1ccc(-c2ccc(=N)n(CCCC(=O)O)n2)cc1", "note": "[Gabazine]", "values": [{"measurement": "percent Bodipy-positive cells", "value": "28.8 ± 0.81", "unit": "%"}]}, {"compound": "Cc1cc(Nc2ncnc3ccc(-c4ccc(CNCCS(C)(=O)=O)o4)cc23)ccc1Oc1ccn2ncnc2c1", "note": "[HER2-Inhibitor-1]", "values": [{"measurement": "percent Bodipy-positive cells", "setting": "[2]", "value": "94 ± 1.3", "unit": "%"}]}, {"compound": "CCC(=O)OCC(=O)[C@@]1(OC(=O)CC)[C@H](C)CC2C3C([C@@H](O)C[C@@]21C)[C@@]1(C)C=CC(=O)C=C1C[C@H]3Cl", "note": "(stereo partly specified)", "values": [{"measurement": "percent Bodipy-positive cells", "setting": "[2]", "value": "24.4 ± 4.5", "unit": "%"}]}, {"compound": "CSc1ccc(C(=O)c2[nH]c(=O)[nH]c2C)cc1", "note": "[Enoximone]", "values": [{"measurement": "percent Bodipy-positive cells", "setting": "[2]", "value": "30.4 ± 3.1", "unit": "%"}]}, {"compound": "S=C(Nc1ccccc1)Nc1nccs1", "note": "[1-Phenyl-3-(2-thiazolyl)-2-thiourea]", "values": [{"measurement": "percent Bodipy-positive cells", "setting": "[2]", "value": "39.1 ± 8.6", "unit": "%"}]}, {"compound": "CCCCC[C@H](O)/C=C/[C@@H]1[C@@H](C/C=C\\CCCC(=O)NCCO)[C@@H](O)C[C@H]1O", "note": "[Prostaglandin F2.alpha. Ethanolamide]", "values": [{"measurement": "percent Bodipy-positive cells", "setting": "[6]", "value": "11.8 ± 3.8", "unit": "%"}]}, {"compound": "COCCOc1cc2nc[nH]c(=O)c2cc1OCCOC", "values": [{"measurement": "percent Bodipy-positive cells", "setting": "[2]", "value": "44.2 ± 2.2", "unit": "%"}]}, {"compound": "O=C1O[C@H](CO)[C@@H](O)[C@H](O)[C@H]1O", "note": "[Gluconolactone]", "values": [{"measurement": "percent Bodipy-positive cells", "setting": "[2]", "value": "45.3 ± 5", "unit": "%"}]}, {"compound": "CS(=O)(=O)c1cccc(CNc2nc(Nc3ccc4c(c3)CCC(=O)N4)ncc2C(F)(F)F)c1", "values": [{"measurement": "percent Bodipy-positive cells", "setting": "[3]", "value": "6.19 ± 1.3", "unit": "%"}, {"measurement": "percent Bodipy-positive cells", "setting": "[4]", "value": "3.88 ± 0.85", "unit": "%"}, {"measurement": "percent Bodipy-positive cells", "setting": "[5]", "value": "3.46 ± 1.3", "unit": "%"}, {"measurement": "percent Bodipy-positive cells", "setting": "[1]", "value": "4.04 ± 0.53", "unit": "%"}]}, {"compound": "CCCCCCCCCCC[C@@H](C[C@@H]1OC(=O)[C@H]1CCCCCC)OC(=O)[C@H](CC(C)C)NC=O", "note": "[Orlistat]", "values": [{"measurement": "percent Bodipy-positive cells", "setting": "[1]", "value": "24.5 ± 2", "unit": "%"}, {"measurement": "percent Bodipy-positive cells", "setting": "library stock concentration: 4 mM", "value": "40.7 ± 6.5", "unit": "%"}]}, {"compound": "CCCCCCCCCCC[C@@H](C[C@@H]1OC(=O)[C@H]1CCCCCC)OC(=O)[C@H](CC(C)C)NC=O", "values": [{"measurement": "percent Bodipy-positive cells", "setting": "[2]", "value": "56.6 ± 13", "unit": "%"}]}, {"compound": "CC1(C)CCC(CN2CCN(c3ccc(C(=O)NS(=O)(=O)c4ccc(NCC5CCOCC5)c([N+](=O)[O-])c4)c(Oc4cnc5[nH]ccc5c4)c3)CC2)=C(c2ccc(Cl)cc2)C1", "values": [{"measurement": "percent Bodipy-positive cells", "setting": "[1]", "value": "31 ± 4.5", "unit": "%"}, {"measurement": "percent Bodipy-positive cells", "setting": "[2]", "value": "26.5 ± 6.2", "unit": "%"}]}, {"compound": "CC(C)(C)n1nc(-c2ccc(Cl)cc2)c2c(N)ncnc21", "values": [{"measurement": "percent Bodipy-positive cells", "setting": "[1]", "value": "14.5 ± 1.8", "unit": "%"}, {"measurement": "percent Bodipy-positive cells", "setting": "[2]", "value": "54.7 ± 0.71", "unit": "%"}]}, {"compound": "CN1CCCC(n2nc(Cc3ccc(Cl)cc3)c3ccccc3c2=O)CC1.Cl", "note": "(stereo unspecified) [Azelastine hydrochloride]", "values": [{"measurement": "percent Bodipy-positive cells", "setting": "library stock concentration: 4.8 mM", "value": "89.1 ± 4.4", "unit": "%"}, {"measurement": "percent Bodipy-positive cells", "setting": "[2]", "value": "91.9 ± 6.3", "unit": "%"}]}, {"compound": "Cc1cc(C(=O)Nc2cc(Nc3ccc4c(/C=C/c5ccccn5)n[nH]c4c3)ccc2F)n(C)n1", "values": [{"measurement": "percent Bodipy-positive cells", "setting": "[4]", "value": "14 ± 1.4", "unit": "%"}, {"measurement": "percent Bodipy-positive cells", "setting": "[5]", "value": "51.2 ± 1.5", "unit": "%"}]}, {"compound": "O=C(O)c1ccccc1Nc1ccccc1", "note": "[N-Phenylanthranilic acid]", "values": [{"measurement": "percent Bodipy-positive cells", "setting": "[2]", "value": "57 ± 5.1", "unit": "%"}, {"measurement": "percent Bodipy-positive cells", "setting": "library stock concentration: 23.5 mM", "value": "21.7 ± 0.61", "unit": "%"}]}, {"compound": "COc1ccccc1N1CCN(CCCCNC(=O)c2ccc3ccccc3c2)CC1", "values": [{"measurement": "percent Bodipy-positive cells", "setting": "[2]", "value": "94.37 ± 0.81", "unit": "%"}]}, {"compound": "CCCCCCCCCCC1=C(C)C(=O)C(OC)=C(OC)C1=O", "note": "[Decylubiquinone]", "values": [{"measurement": "percent Bodipy-positive cells", "setting": "library stock concentration: 15.5 mM", "value": "9.52 ± 5.3", "unit": "%"}]}, {"compound": "NC(=O)CCCSc1nc(N)nc(-c2c(Cl)cc3c4c(cccc24)COC3)n1", "values": [{"measurement": "percent Bodipy-positive cells", "setting": "[1]", "value": "84.42 ± 0.13", "unit": "%"}, {"measurement": "percent Bodipy-positive cells", "setting": "[2]", "value": "89.9 ± 3.4", "unit": "%"}]}, {"compound": "C[C@@H]1NC(=O)NC1=O", "note": "[Methylhydantoin-5-(L)]", "values": [{"measurement": "percent Bodipy-positive cells", "value": "8.3 ± 0.54", "unit": "%"}]}, {"compound": "C=CC[C@H](N)C(=O)O", "note": "[L-allylglycine]", "values": [{"measurement": "percent Bodipy-positive cells", "setting": "[2]", "value": "51.6 ± 8.2", "unit": "%"}]}]}
